Test results from article PMC7425433.
These are yes or no findings as the source states them, for the method shown. Binding seen in cells or lysates may run through a third protein. Some entries that bind do so weakly or less than the wild type.

The chains behind the UniProt entries cited, without tags or fusion partners.
UniProt Q92793: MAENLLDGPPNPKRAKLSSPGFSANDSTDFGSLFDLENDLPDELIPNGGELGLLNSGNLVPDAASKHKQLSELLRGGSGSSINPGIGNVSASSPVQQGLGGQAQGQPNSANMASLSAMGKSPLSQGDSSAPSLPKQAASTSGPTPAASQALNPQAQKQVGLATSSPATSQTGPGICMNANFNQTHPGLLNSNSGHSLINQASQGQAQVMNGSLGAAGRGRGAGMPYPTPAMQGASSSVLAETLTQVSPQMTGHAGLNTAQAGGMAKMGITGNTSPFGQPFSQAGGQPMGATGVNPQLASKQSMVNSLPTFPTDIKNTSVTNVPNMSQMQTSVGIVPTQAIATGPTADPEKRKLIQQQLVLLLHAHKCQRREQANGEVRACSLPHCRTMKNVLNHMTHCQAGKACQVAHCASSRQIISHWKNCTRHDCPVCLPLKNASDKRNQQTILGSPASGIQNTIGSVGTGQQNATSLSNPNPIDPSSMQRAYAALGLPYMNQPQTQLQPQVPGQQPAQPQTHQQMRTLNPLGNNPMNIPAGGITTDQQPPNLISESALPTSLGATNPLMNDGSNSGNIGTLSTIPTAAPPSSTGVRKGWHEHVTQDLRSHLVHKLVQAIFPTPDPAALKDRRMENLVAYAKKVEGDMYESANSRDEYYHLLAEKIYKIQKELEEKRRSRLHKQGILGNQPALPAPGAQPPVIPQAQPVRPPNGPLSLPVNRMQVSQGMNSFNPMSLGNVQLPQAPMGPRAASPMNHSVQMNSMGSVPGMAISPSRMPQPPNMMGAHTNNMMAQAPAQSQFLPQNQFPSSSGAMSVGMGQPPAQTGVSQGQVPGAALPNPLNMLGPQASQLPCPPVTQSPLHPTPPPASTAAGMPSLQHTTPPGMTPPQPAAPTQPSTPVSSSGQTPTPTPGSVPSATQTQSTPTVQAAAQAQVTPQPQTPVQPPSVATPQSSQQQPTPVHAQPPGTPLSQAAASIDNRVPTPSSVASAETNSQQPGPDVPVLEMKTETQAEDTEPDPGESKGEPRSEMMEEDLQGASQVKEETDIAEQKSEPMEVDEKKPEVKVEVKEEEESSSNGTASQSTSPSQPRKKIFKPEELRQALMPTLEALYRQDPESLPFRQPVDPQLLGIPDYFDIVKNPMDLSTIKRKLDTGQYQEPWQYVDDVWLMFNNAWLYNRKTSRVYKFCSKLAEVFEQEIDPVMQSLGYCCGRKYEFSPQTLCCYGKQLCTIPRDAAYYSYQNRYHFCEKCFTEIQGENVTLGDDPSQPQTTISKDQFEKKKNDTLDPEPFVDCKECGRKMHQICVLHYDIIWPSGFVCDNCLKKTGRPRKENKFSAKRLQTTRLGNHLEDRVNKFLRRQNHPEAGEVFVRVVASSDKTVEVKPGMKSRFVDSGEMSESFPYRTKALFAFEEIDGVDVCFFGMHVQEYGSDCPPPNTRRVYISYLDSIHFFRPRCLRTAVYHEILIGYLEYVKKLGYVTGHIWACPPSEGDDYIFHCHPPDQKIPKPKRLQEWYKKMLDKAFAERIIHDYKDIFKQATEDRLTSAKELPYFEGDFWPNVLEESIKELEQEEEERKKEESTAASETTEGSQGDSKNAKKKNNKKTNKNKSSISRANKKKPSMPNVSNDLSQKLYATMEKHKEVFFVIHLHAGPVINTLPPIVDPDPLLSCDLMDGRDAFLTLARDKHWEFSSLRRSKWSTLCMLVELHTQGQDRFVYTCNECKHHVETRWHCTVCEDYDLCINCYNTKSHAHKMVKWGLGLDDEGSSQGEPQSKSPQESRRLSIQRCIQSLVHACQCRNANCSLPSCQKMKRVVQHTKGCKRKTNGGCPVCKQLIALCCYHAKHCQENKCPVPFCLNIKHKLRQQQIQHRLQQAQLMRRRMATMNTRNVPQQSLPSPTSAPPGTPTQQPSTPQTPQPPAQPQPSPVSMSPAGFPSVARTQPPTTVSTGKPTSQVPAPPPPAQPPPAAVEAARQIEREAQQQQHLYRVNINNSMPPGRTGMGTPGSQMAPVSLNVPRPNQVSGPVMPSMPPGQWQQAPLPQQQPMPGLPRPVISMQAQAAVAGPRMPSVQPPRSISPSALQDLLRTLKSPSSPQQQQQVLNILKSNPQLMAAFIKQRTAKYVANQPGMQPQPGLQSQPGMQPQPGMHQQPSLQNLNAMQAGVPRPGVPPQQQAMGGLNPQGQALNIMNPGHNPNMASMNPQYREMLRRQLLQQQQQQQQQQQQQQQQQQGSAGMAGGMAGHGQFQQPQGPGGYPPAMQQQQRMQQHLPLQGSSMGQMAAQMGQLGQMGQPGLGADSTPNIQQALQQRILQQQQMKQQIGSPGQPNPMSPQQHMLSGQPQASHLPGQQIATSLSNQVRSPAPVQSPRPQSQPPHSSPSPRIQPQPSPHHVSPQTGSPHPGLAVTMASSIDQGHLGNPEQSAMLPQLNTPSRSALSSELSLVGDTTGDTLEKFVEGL
UniProt P11142: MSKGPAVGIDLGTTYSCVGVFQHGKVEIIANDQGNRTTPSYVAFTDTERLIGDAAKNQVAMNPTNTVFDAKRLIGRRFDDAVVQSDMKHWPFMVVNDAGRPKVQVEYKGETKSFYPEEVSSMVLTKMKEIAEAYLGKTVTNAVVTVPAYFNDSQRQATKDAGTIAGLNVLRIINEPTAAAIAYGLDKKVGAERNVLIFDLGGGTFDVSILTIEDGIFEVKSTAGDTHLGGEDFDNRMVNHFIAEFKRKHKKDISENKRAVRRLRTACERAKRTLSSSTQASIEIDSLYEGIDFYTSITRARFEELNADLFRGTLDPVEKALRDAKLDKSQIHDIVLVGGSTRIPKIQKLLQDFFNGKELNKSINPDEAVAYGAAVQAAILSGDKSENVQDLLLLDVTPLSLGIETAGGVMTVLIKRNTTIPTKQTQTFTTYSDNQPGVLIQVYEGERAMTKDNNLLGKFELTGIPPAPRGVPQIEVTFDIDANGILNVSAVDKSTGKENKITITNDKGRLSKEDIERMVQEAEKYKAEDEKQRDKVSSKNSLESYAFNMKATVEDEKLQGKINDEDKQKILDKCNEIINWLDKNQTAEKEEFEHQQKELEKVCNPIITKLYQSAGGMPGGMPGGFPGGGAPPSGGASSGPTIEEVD

What was measured:
[1] = target: T1, 17β-Hydroxysteroid dehydrogenase type 4 (HSD17B4), endogenous (human (endogenous in LNCaP)) (UniProt P51659); assay: co-IP; endogenous proteins from LNCaP lysate, detected by western blotting; cells cultured with or without DHT for 24 h (Figures 5C, 6F) or untreated (Figure 7D); lysis in 0.3% Nonidet P40, 150 mM NaCl, 50 mM Tris-HCl pH 7.5; which protein was precipitated is not told
T1 sequence: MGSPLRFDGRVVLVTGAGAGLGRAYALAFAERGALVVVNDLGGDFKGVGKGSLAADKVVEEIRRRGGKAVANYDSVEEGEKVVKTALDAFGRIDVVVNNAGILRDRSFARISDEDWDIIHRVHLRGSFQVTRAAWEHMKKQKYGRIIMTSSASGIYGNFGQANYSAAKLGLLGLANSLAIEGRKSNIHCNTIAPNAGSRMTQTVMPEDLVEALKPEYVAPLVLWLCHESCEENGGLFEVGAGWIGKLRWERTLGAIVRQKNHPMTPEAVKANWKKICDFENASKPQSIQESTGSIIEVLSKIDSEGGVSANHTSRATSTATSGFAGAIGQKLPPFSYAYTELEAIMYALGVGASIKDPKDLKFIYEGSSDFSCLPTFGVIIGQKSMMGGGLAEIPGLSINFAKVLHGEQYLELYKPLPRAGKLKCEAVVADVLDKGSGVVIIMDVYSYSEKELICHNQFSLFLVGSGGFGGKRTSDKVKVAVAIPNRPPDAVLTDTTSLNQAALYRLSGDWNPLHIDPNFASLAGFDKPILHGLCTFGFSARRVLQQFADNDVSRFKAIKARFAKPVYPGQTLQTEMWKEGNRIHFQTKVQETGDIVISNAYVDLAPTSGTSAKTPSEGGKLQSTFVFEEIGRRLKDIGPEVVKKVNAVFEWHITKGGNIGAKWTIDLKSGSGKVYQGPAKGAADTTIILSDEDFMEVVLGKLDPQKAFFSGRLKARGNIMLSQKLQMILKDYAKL

[2] = target: T2, HSD17B4, wild type, expressed construct of the mutant panel (Figure 5E) (human) (UniProt P51659); assay: co-IP; IP-western of HSD17B4 wild type and alanine mutants, blotted for HSC70; cell line not stated
T2 sequence: T1 sequence

binding [1] | binding [2] | Substance
binds |  | CREBBP, endogenous (from UniProt Q92793 1-2442) (enzyme)
binds | binds | Heat Shock Protein Family A Member 8 (HSC70) (from UniProt P11142 1-646)
